# Screening data

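A cell-based FRET test of anthrax lethal toxin entry, tracked through the 460 nm emission signal; the cell line is not named here. Each compound was tested as a concentration series from about 0.0005 to 40 µM. The number is the fitted AC50 of the 460 nm signal alone; lower values mean a more potent effect. A falling signal goes with compounds filed as inhibitors or cytotoxic, a rising one with activators or fluorescent compounds (inferred from the filed classes).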

Values are in µM. Common to all entries: measured here: 460 nm channel. This is a side read-out of the assay, for part of the compounds, not drawn at random. A potency from a partial, single-point or poor curve is only a rough figure. The first word of each remark tells which way the curve ran; it can be opposite to the aim of the assay.

Result for O=C(NCC1CCCO1)C1CCCN(S(=O)(=O)c2cccc3nsnc23)C1 (stereo not shown) was AC50 5.012 µM (falling, partial curve). With CCn1c(SCCC#N)nnc1-c1ccncc1 the assay gave AC50 0.003162 µM (falling, full curve, poor fit). For CCCc1cc(C(=O)Nc2ccc(C)cc2)no1 the result was AC50 10 µM (falling, partial curve). For On1onc2c3cc(-c4ccccc4)nc3ccc21 the result was AC50 3.162 µM (rising, partial curve).

CCn1cc(Br)c(C(=O)Nc2ccc(F)c(Cl)c2)n1 gave AC50 12.59 µM (falling, single point). For FC(F)(F)c1cccc(-c2nc3nc(Cl)c(Cl)nc3[nH]2)c1 the result was AC50 0.3981 µM (falling, full curve). Result for O=S(=O)(c1ccccc1)N1CCC2(CCCN(c3ccncc3)C2)CC1 was AC50 1.585 µM (falling, full curve). Cc1noc(C)c1S(=O)(=O)N1CCCC(C(=O)NCCc2ccc(Cl)cc2)C1 (stereo not shown) gave AC50 0.1585 µM (falling, full curve).

Cn1cc(C2NC(=O)c3c(sc4c3CCCC4)N2)c2ccccc21 (stereo not shown) gave AC50 0.3162 µM (falling, full curve, poor fit). CCCC(=O)Nc1nc2ccc(NC(=O)c3ccc(Br)o3)cc2s1 read AC50 10 µM (falling, partial curve). With Cn1cccc1C(=O)N1CCC2(CCN(C(=O)Nc3cccc(C#N)c3)CC2)CC1 the assay gave AC50 10 µM (rising, partial curve). O=c1c(O)c(-c2cc(O)c(O)c(O)c2)oc2cc(O)cc(O)c12 gave AC50 7.943 µM (falling, partial curve).

With COCCCN(C(=O)Cn1ncc2c(=O)oc3ccc(C)cc3c21)C(C)c1ccncc1 (stereo not shown) the assay gave AC50 6.31 µM (rising, partial curve). With N#Cc1nc(-c2cccc3ccccc23)oc1NCCN1CCOCC1 the assay gave AC50 10 µM (rising, partial curve). With COc1ccccc1N1CCN(C[C@@H](C(=O)NC(C)(C)C)c2ccccc2)CC1 the assay gave AC50 12.59 µM (falling, single point). For O=C1CCC(c2ccccc2)=NN1c1nc2ccccc2s1 the result was AC50 5.012 µM (rising, partial curve).

Result for c1ccc2sc(C3(N4CCCCC4)CCCCC3)cc2c1 was AC50 25.12 µM (falling, partial curve). For O=C(c1cc(C(F)(F)F)cc(C(F)(F)F)c1)N1CCC2(CCCN(c3ccncc3)C2)CC1 the result was AC50 12.59 µM (falling, partial curve). COc1cc(C(=S)N2CCCC2)ccc1O read AC50 12.59 µM (falling, single point).

Some entries from above, unchanged:

{"smiles": "COCCCN(C(=O)Cn1ncc2c(=O)oc3ccc(C)cc3c21)C(C)c1ccncc1", "stereo": "stereo not shown", "AC50 (µM)": "6.31", "curve": "rising, partial curve"}
{"smiles": "Cn1cccc1C(=O)N1CCC2(CCN(C(=O)Nc3cccc(C#N)c3)CC2)CC1", "AC50 (µM)": "10", "curve": "rising, partial curve"}

The results are deposited in PubChem (AID912; NCATS, 2007).